Our source for the binding signal values is article PMC7819943, “Rice protein-binding microarrays: a tool to detect cis-acting elements near promoter regions in rice”.

Chains of the proteins cited; added tags and fusions are not shown.
UniProt Q0JBA9, entry or part of it: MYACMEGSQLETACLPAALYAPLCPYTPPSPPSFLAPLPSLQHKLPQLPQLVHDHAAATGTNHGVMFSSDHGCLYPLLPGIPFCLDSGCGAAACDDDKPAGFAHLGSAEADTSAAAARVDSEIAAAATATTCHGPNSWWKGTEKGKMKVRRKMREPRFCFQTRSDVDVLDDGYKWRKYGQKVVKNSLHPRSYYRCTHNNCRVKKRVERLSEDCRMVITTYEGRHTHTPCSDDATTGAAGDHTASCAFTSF

The list shows a part of the results.

The test deals with OsWRKY34 (Oryza sativa, UniProt Q0JBA9 1-250). The experiment in a line: protein-binding microarray (RPBM); PBS, 2% BSA, 51.3 ng/ul salmon testes DNA, 50 uM zinc acetate, 200 nM TF, 25 C, 1 h; high values mean tight binding. The note with it: protein: recombinant; tags: N-terminal polyhistidine and DsRed monomer fusion (pET32a); label: CyDye5-dUTP incorporated in the synthesized complementary strand; 3' TTTTT single-stranded linker to array surface; dsDNA, one strand shown. An outline of the steps:
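A custom Agilent array was converted to double-stranded form by primer extension with Cy5-dUTP and blocked with 2% BSA. Protein at 200 nM in PBS with 2% BSA, salmon testes DNA and 50 µM zinc acetate was applied for 1 h at 25 °C, followed by washing. The proteins were polyhistidine–DsRed N-terminal fusions of transcription factors, expressed in E. coli BL21-CodonPlus and Ni–NTA-purified. The binding signal is per-feature fluorescence intensity (arbitrary units) from an Axon 4000B scanner.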
Consider “TGTGGGTGTGCGTGTGTGCGTTCATAGGGGTGTGTGTGCGCGGAGTCACCTAGTGCAG”, for which the binding signal is 9150 fluorescence intensity (a.u.).

Turning to “TAGGTTATGTTCTTTACTCTGTGTTCCCAACTTCACACCCCGGAGTCACCTAGTGCAG”, the binding signal was 8580 fluorescence intensity (a.u.).

Consider “CTGGTTGCAACCCCGCTTTGTTGATTCGTTCTTTGGCGGCCGGAGTCACCTAGTGCAG”, for which the binding signal was 10300 fluorescence intensity (a.u.).

Regarding “ACTTTTTACCTATGGTGCATGTTTCTTTTTAACCCAACCACGGAGTCACCTAGTGCAG”, the binding signal was 10100 fluorescence intensity (a.u.).

For “TTATTTTTCATTTGTAAATACTACCGTTTCGCTTTTTCCTCGGAGTCACCTAGTGCAG”, the binding signal is 8270 fluorescence intensity (a.u.).

For the sequence “GATCTGGACTCTAGCCGATTCCTGCTCTGTTTCCGAACTCCGGAGTCACCTAGTGCAG”, the binding signal is 9920 fluorescence intensity (a.u.).

“TGACGTCCACATGTCGCCACCACCGGCCAAACACCGCGCGCGGAGTCACCTAGTGCAG”: the binding signal is 10400 fluorescence intensity (a.u.).

Turning to “CCTTCGCCGCCTCCGCATCCTTCTCCGGCGGCTGATCCAGCGGAGTCACCTAGTGCAG”, the binding signal is 8480 fluorescence intensity (a.u.).

Consider “TTTGTATTGTTCGACTTGTTTCTTATTAAAATTACAAGTTCGGAGTCACCTAGTGCAG”, for which the binding signal is 8140 fluorescence intensity (a.u.).

As to “TCTCTCTCTCTCTCTTACTCGTTTTGGTGGGCCGGTCGGCCGGAGTCACCTAGTGCAG”, the binding signal is 8920 fluorescence intensity (a.u.).

Consider “CCAGCTTGGCATCGTTGACCGGGCCATCCCAACCCAATCCCGGAGTCACCTAGTGCAG”, for which the binding signal is 12900 fluorescence intensity (a.u.).

Regarding “CCGGAGTCCTCTTGTTCTTCTTCTTCGTTGCTGCTGGTTTCGGAGTCACCTAGTGCAG”, the binding signal is 9860 fluorescence intensity (a.u.).

In the case of “GATGTTTTGGCCATGCATTTCTTTTGGCCAAGGATGCGAACGGAGTCACCTAGTGCAG”, the binding signal is 8180 fluorescence intensity (a.u.).

With “ATCTATCACCATCTCTCCTTGATCTTGTGCACCTTACAAACGGAGTCACCTAGTGCAG”, the binding signal was 16800 fluorescence intensity (a.u.).

In the case of “GCTTTCTGTCGACCCATCAATATGTACTATGTGTGTTTTACGGAGTCACCTAGTGCAG”, the binding signal was 13600 fluorescence intensity (a.u.).

In the case of “GGGATGGGTAGGGAGAGAAGGAGGAAGAAGCACATAGATGCGGAGTCACCTAGTGCAG”, the binding signal was 8670 fluorescence intensity (a.u.).

As for “AAAAGCAGTTTCTTCTCTCTTTTTTTCCTATTTTCCTTGACGGAGTCACCTAGTGCAG”, the binding signal was 8910 fluorescence intensity (a.u.).

For the sequence “CTCCTCTCCTCACCGTCACTCACCACCCGCCACACGTAACCGGAGTCACCTAGTGCAG”, the binding signal is 10100 fluorescence intensity (a.u.).

Turning to “CTTACACTCACTCGTGTGCACCCACCCGGGAAGAATTTCTCGGAGTCACCTAGTGCAG”, the binding signal was 11500 fluorescence intensity (a.u.).

“CTCCCTTTTCTCGAGCGCCGGCGGCGCACGTGCTTTCTTCCGGAGTCACCTAGTGCAG”: the binding signal is 8240 fluorescence intensity (a.u.).

With “CCGCTGTCGCCGCACCATCATACTGTCGTCGCCATCCTCCCGGAGTCACCTAGTGCAG”, the binding signal was 8900 fluorescence intensity (a.u.).

On to “TCCATTCAGGTAATCCTCAATTCCTTTTGCTTGCTGCCTTCGGAGTCACCTAGTGCAG”, for which the binding signal was 9270 fluorescence intensity (a.u.).

For the sequence “CCCGGCGGCCCGATCACCACCTGCCCGAACACCATCCTCCCGGAGTCACCTAGTGCAG”, the binding signal was 8530 fluorescence intensity (a.u.).

For the sequence “GCTGCCAACGTGGGTCCTATACTTCCTTCATCGCCGGAGGCGGAGTCACCTAGTGCAG”, the binding signal was 8150 fluorescence intensity (a.u.).

“CTTATCAGCCCCTATCTATTTACATGTCAGCCCTTGCATTCGGAGTCACCTAGTGCAG”: the binding signal is 8160 fluorescence intensity (a.u.).

In the case of “GCGCGGTTATCTCCTGCTTCAGGTTCCAGTCGAACATGTGCGGAGTCACCTAGTGCAG”, the binding signal is 8400 fluorescence intensity (a.u.).

Consider “TGTGGTGGCAAGTTTTAATATGGTCTTTTGAGGAGTTTCTCGGAGTCACCTAGTGCAG”, for which the binding signal is 9240 fluorescence intensity (a.u.).

For “GAACCCGCAGCCGCCTCCGCGCACCCCGCCGCCGTGGCCACGGAGTCACCTAGTGCAG”, the binding signal is 10600 fluorescence intensity (a.u.).

Regarding “ATATATCACATCTTTCAACTTACAAAACCGTTCACTTTACCGGAGTCACCTAGTGCAG”, the binding signal was 8480 fluorescence intensity (a.u.).

With “AGTATATTAGGGTGTGTTTGGTTCCACGTCAAAATTAGAACGGAGTCACCTAGTGCAG”, the binding signal was 8760 fluorescence intensity (a.u.).

Regarding “GTATCCCATTTTTTCTCCCATATTCCTCCCGCGAGCCTCGCGGAGTCACCTAGTGCAG”, the binding signal was 9130 fluorescence intensity (a.u.).

With “CCGGTTGCCGAGCTCTCCTTCTCTCTCGCCGGTCGCCGCGCGGAGTCACCTAGTGCAG”, the binding signal is 10900 fluorescence intensity (a.u.).

With “GTCCCATTTTCACTGTTTTTACTTACGTGCCAGGTGTCTGCGGAGTCACCTAGTGCAG”, the binding signal was 8620 fluorescence intensity (a.u.).

In the case of “TGACATTTTGCTTGCACTGTTTGACCATTCATCTTATTCACGGAGTCACCTAGTGCAG”, the binding signal was 9820 fluorescence intensity (a.u.).

Regarding “GTTCTCTATGCACGTTTTTTTTTCTTTTTTTCTGTTTTAACGGAGTCACCTAGTGCAG”, the binding signal was 10500 fluorescence intensity (a.u.).

Turning to “TTCTGGTGGTGGGGAGATGGGTGCAAAAGGATGGGGAAGACGGAGTCACCTAGTGCAG”, the binding signal is 15100 fluorescence intensity (a.u.).

Consider “TAATTTTCACATACGGCTCTTTCGAGAAATCATCCATCAACGGAGTCACCTAGTGCAG”, for which the binding signal was 8600 fluorescence intensity (a.u.).

For “CCTCCTCCTCCATGGTGTGTCGCCGATCTGTGGGGTGGGACGGAGTCACCTAGTGCAG”, the binding signal is 8530 fluorescence intensity (a.u.).

As to “TTTGACTTTCTAGCTGGCTAGGCTACGACTTCCCTTCATCCGGAGTCACCTAGTGCAG”, the binding signal is 9550 fluorescence intensity (a.u.).

On to “GGTGGGCCGAGGTACACACGTGGGGATGGTTGTGGAAAAACGGAGTCACCTAGTGCAG”, for which the binding signal is 8550 fluorescence intensity (a.u.).

For “TTTGTTTCAGTTCGTTTCTTTTGTCGTTCTCACAAAAATGCGGAGTCACCTAGTGCAG”, the binding signal was 8600 fluorescence intensity (a.u.).

For “TCTCTTCTCTTTCTCTCCTCTCTTTTTGCCGCCGCTCGAGCGGAGTCACCTAGTGCAG”, the binding signal was 8900 fluorescence intensity (a.u.).
